Marks after values point to notes of the source that are not given here.
Experiment: Urinary excretion of phenylbutyrate, benzoate and their conjugated products; nitrogen conjugation in 24 h urine
Conditions: estimated average costs phenylbutyrate USD 24.7/g, benzoate USD 0.03/g
Procedure: This was a randomized, three-arm, crossover study. Each arm was completed over a four-day period with a washout period of at least 7 days between any two of the treatment arms (FIG. 1). […] The treatments were designed to provide isomolar amount of drugs and the total daily dose was administered in three equally divided doses.
On day 1 of study arm 1, detailed medical history review and physical examination were performed. Complete blood count, comprehensive metabolic panel, plasma ammonia, and urinalysis (safety laboratory measurements) were performed. Urine pregnancy test was performed on all females. […]
Plasma and urinary drugs and their conjugated products as well as urea and amino acids were determined by mass spectrometry and quantitated based on the dilution of labeled internal standards. Total urinary nitrogen was determined using the micro-Kjeldahl method.
Plasma and urinary phenylbutyrate, PAA, and benzoate were determined as their pentafluorobenzyl derivatives by NCI-GC-MS; . […] Underivatized PAGN and HA were measured by HESI LC-MS/MS; [^2H5] […]
Accordingly, these background values were subtracted from the values obtained during the treatment with phenylbutyrate and benzoate. The total amount of nitrogen conjugated was expressed as fraction of the test meal, by dividing by the total nitrogen content of the test meal. […]

O=C([O-])c1ccccc1.[Na+] [NaBz, sodium benzoate]
Conjugation efficiency: 2445.4 ^a mg of nitrogen excreted per USD
Conjugation efficiency (listed as benzoate): 2445.4 mg of nitrogen excreted per USD

Source: patent US11819483B2, “Combination therapy to treat urea cycle disorders” (Baylor College of Medicine, priority 2017, dated 2023)
